# Results as given in paper PMC7819943, “Rice protein-binding microarrays: a tool to detect cis-acting elements near promoter regions in rice”.
# This is one part of the list.
# Target: T1, OsSMF1 (Oryza sativa, UniProt Q6ZLB0 1-436)
# T1 sequence: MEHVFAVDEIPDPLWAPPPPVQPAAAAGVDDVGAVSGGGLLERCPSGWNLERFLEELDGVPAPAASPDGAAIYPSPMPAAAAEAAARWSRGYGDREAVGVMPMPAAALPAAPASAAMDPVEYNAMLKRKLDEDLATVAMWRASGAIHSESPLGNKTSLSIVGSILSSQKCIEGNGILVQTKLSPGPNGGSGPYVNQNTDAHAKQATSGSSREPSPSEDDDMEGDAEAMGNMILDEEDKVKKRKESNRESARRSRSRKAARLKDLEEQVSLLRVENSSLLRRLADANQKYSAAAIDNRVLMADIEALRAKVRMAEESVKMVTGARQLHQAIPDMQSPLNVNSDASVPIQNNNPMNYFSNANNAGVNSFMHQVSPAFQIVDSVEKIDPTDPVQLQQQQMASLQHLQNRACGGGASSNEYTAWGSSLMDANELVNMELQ
# Assay: protein-binding microarray (RPBM); PBS, 2% BSA, 51.3 ng/ul salmon testes DNA, 50 uM zinc acetate, 200 nM TF, 25 C, 1 h; high values mean tight binding
# Details: protein: recombinant; tags: N-terminal polyhistidine and DsRed monomer fusion (pET32a); chain copies: 2; label: CyDye5-dUTP incorporated in the synthesized complementary strand; 3' TTTTT single-stranded linker to array surface; dsDNA, one strand shown
# How it was run: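 Binding signal is reported as fluorescence intensity per feature (arbitrary units) from an Axon 4000B scanner. Incubation used 200 nM of each Ni–NTA-purified, N-terminally polyhistidine- and DsRed-fused transcription factor from E. coli BL21-CodonPlus on a double-stranded custom Agilent array for 1 h at 25 °C, with 50 µM zinc acetate in the buffer, followed by washing.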
row,Sequence,binding signal
1,GGCGAGGAGAGTCGCAACGACAGGTCATGGGTGCGGACACCGGAGTCACCTAGTGCAG,3320 fluorescence intensity (a.u.)
2,GCAGGTAAACAGCTCTATCAACCTGACCAGTAAAGACCATCGGAGTCACCTAGTGCAG,3270 fluorescence intensity (a.u.)
3,TTCTCTTCCTCCCCTCTATCTTCCACGTCACCAAATTTACCGGAGTCACCTAGTGCAG,16600 fluorescence intensity (a.u.)
4,CTGATGATGCACATACGTATGCACTGACGTAAGCAGAATTCGGAGTCACCTAGTGCAG,7040 fluorescence intensity (a.u.)
5,ACCATGCCACGTCAGCGAAACCGGCCTTATATGCTACTGGCGGAGTCACCTAGTGCAG,22800 fluorescence intensity (a.u.)
6,AGGCAGCCATATATATGGTTCTGACGTTGCCTTGCTGAATCGGAGTCACCTAGTGCAG,18400 fluorescence intensity (a.u.)
7,TGCTATGCTAATGTGCGTGCCCATCGTACGGGATGTTTGACGGAGTCACCTAGTGCAG,20400 fluorescence intensity (a.u.)
8,TCAAAACAACCATAATGACGAAACTGTTCACACATTGTGACGGAGTCACCTAGTGCAG,18300 fluorescence intensity (a.u.)
9,GCAAGCGCCTTCGCCTGCCACGCCACCGCCTCCGCCCTTACGGAGTCACCTAGTGCAG,9200 fluorescence intensity (a.u.)
10,GCTAGCGCGCATTGACCAAGATCCGATTTGTATGCTAGTGCGGAGTCACCTAGTGCAG,4060 fluorescence intensity (a.u.)
11,AGCTCGAACATGGCGCGCCGGAGCGACGGCATCAGCTCGCCGGAGTCACCTAGTGCAG,3700 fluorescence intensity (a.u.)
12,GGCAGCGGCGGCCGGAACGACGCCGCCGTGGATGGGGTGGCGGAGTCACCTAGTGCAG,3650 fluorescence intensity (a.u.)
13,CTATTGGGTGGACGCCGAAGACAGCTTCTTCCCACGCCGCCGGAGTCACCTAGTGCAG,3430 fluorescence intensity (a.u.)
14,ATAACCAGGCTACTACCAGCAACTTTGCTGACAGTGACTGCGGAGTCACCTAGTGCAG,3520 fluorescence intensity (a.u.)
15,TGAGAGTGAGAGGAGGAGAGAGCTAAGTTAGTTAGAGCTCCGGAGTCACCTAGTGCAG,21600 fluorescence intensity (a.u.)
16,TTGAAATTCATTATTGTCAGCATTGTCATCCTGAGTAGATCGGAGTCACCTAGTGCAG,6500 fluorescence intensity (a.u.)
17,ATTAACACTAATTTACATCATTCTCAGCCTGTTTTCACTTCGGAGTCACCTAGTGCAG,3440 fluorescence intensity (a.u.)
18,TGGCTACTCCTAATAATAAGATATTTTGATTGAATATGACCGGAGTCACCTAGTGCAG,31800 fluorescence intensity (a.u.)
19,ATGGTCAAACATGTGTTCAAAATTCAACGCGTCATCTATTCGGAGTCACCTAGTGCAG,5400 fluorescence intensity (a.u.)
20,TTCGTGGAATGGAAACCTCCACGTGCTCCTCTTATCCTCACGGAGTCACCTAGTGCAG,5770 fluorescence intensity (a.u.)
21,CATGGCTACATTCAGAGCCCCGACGGTGATGTCATCGACTCGGAGTCACCTAGTGCAG,9070 fluorescence intensity (a.u.)

# Exported as tab-separated lines: entries from further up
row	Sequence	binding signal
1	GGCGAGGAGAGTCGCAACGACAGGTCATGGGTGCGGACACCGGAGTCACCTAGTGCAG	3320 fluorescence intensity (a.u.)
20	TTCGTGGAATGGAAACCTCCACGTGCTCCTCTTATCCTCACGGAGTCACCTAGTGCAG	5770 fluorescence intensity (a.u.)

# (listing goes on)

row,Sequence,binding signal
1,AGCACCAGGTGTTTATTAGCTTCTCTCCACGTCTTCTTCCCGGAGTCACCTAGTGCAG,6240 fluorescence intensity (a.u.)
2,TGGAGGAGGACAATCTTTTGGTGTCGGCGTGGATAAATGTCGGAGTCACCTAGTGCAG,5020 fluorescence intensity (a.u.)
3,GTTCGCGTCGCCGCGGCACAGCGCCAGCGCGGACACCTGGCGGAGTCACCTAGTGCAG,4740 fluorescence intensity (a.u.)
4,CTACCAGCAGGATGACATTAACCTGTATTTATTTCGTTTTCGGAGTCACCTAGTGCAG,20400 fluorescence intensity (a.u.)
5,TCTGTCCCTACGTACCGGACAAACCTGACGTTGGCACTACCGGAGTCACCTAGTGCAG,5680 fluorescence intensity (a.u.)
6,CCCTAGACAGATCAGCTTTGGTGTCTTGGTGGTTGTTGTCCGGAGTCACCTAGTGCAG,5140 fluorescence intensity (a.u.)
7,TACGCATGCACACCGGAGCGCGTGACGTGGCCCCATGCAACGGAGTCACCTAGTGCAG,13700 fluorescence intensity (a.u.)
8,TTTGTATGACTGTCTGTGTGCGATCCCATCTGAAAATCCTCGGAGTCACCTAGTGCAG,3160 fluorescence intensity (a.u.)
9,CTGTAGAACTTGGACCAGCAGCATCAGCAGTAGTAGCAGGCGGAGTCACCTAGTGCAG,3140 fluorescence intensity (a.u.)
10,ATGGAGTATTTGAATATTTCGCTCTTGCCAGTGACTTGTGCGGAGTCACCTAGTGCAG,3610 fluorescence intensity (a.u.)
11,TACTATATGTGAGTGTGGAGTGTATGTATAATGGTGTTAGCGGAGTCACCTAGTGCAG,3310 fluorescence intensity (a.u.)
12,TATCTCACTTACACATCACTTACATATGTAATTATTATGTCGGAGTCACCTAGTGCAG,3500 fluorescence intensity (a.u.)
13,CGCTCGCCGATCACACGCTGACGCGCACACACCGGCGATTCGGAGTCACCTAGTGCAG,5570 fluorescence intensity (a.u.)
14,CACGGTTAGGTTTGGGCTAATGTCATCCGCTCGATTGCAGCGGAGTCACCTAGTGCAG,3920 fluorescence intensity (a.u.)
15,AGGTGTGATGATAAAATTATTAGTACATGACTCAACCTAACGGAGTCACCTAGTGCAG,4630 fluorescence intensity (a.u.)
16,CCGACGAGGCGGCTGAGCCAGCGTGGGACCCACGTGGACCCGGAGTCACCTAGTGCAG,7770 fluorescence intensity (a.u.)
17,CCTGGCCACCTCGTTCCCCTTCGCCACGCTTCCACTCTGCCGGAGTCACCTAGTGCAG,5830 fluorescence intensity (a.u.)
18,GCCCATGTACGATGACGTGTACCCTATTGTCTTCTACTAGCGGAGTCACCTAGTGCAG,21600 fluorescence intensity (a.u.)
19,TGGCTAGCAGCTGACGAGCTGTCATCGTTGTCAACTCGCTCGGAGTCACCTAGTGCAG,6740 fluorescence intensity (a.u.)
20,TGCTGCGATCCCAGTCCAAGCGATGTCTCGTGACGGTCACCGGAGTCACCTAGTGCAG,3290 fluorescence intensity (a.u.)
21,ACTTAAACCCATGTATATTAACAAACCACGTGTCCATCAACGGAGTCACCTAGTGCAG,6900 fluorescence intensity (a.u.)

# Another view of some results above.
row | Sequence | binding signal
3 | TTCTCTTCCTCCCCTCTATCTTCCACGTCACCAAATTTACCGGAGTCACCTAGTGCAG | 16600 fluorescence intensity (a.u.)
19 | TGGCTAGCAGCTGACGAGCTGTCATCGTTGTCAACTCGCTCGGAGTCACCTAGTGCAG | 6740 fluorescence intensity (a.u.)
